Data as given in PubChem BioAssay AID504793 (Drosophila RNAi Screening Center, 2011)
In all, the deposit lists about 23,000 reagents; below is a random part of those that have a named target and a result. Over the whole deposit, 62 (0.27%) are marked active. 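Calls come from follow-up tests whose scores are not deposited, so confirmed genes may have low counts here; counts are not normalised per plate.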 Raw values are not corrected between plates. Reagents against one gene are numbered here. A plus sign joins genes that one reagent is predicted to hit.

Screen: 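Whole-genome screen for parts of the DNA damage checkpoint at G2/M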 (primary screen)
Cell system: Drosophila S2R+ cells
Knock-down reagent: long dsRNA against Drosophila genes, about 0.25 µg dsRNA per well
Timing: 4 days of dsRNA, then 4 hours of drug before read-out
Challenge: doxorubicin 0.5 µM for 4 hours to cause double-strand breaks, in cells also given a low, harmless dose of dsRNA against nbs to sensitise the assay
Detection: 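Mitotic index as the number of phospho-histone H3-positive cells in each well following doxorubicin, given as raw counts without normalisation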
Scale: mitotic cells: higher = more cells in mitosis, weaker G2 arrest
Hit rule: 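a call needs confirmation in secondary tests, with other dsRNAs and a check of mitotic timing without damage, not just a high primary count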
Meaning of the calls: active = confirmed in follow-up tests; inactive = not confirmed

target gene,reagent no.,"mitotic cells, replicate 1",activity call
Cap-H2,1,9,inactive
CCT4,1,89,inactive
CCT4,2,7,inactive
CG32161,1,,inactive
alpha-PheRS,1,6,inactive
alpha-PheRS,2,5,inactive
ecd,1,14,inactive
CG15432,1,9,inactive
CG15432,2,2,inactive
Coq9,1,4,inactive
ato,1,4,inactive
Ype,1,5,inactive
CG4892,1,4,inactive
cass,1,6,inactive
cass,2,11,inactive
Dnaaf6,1,6,inactive
VhaSFD,1,5,inactive
CG18278 + CG30059,1,3,inactive
IntS11,1,14,inactive
IntS11,2,7,inactive
path,1,9,inactive
CG7702,1,5,inactive
CG7702,2,5,inactive
Vps4,1,13,inactive
Vps4,2,7,inactive
CG10147,1,3,inactive
CG10147,2,8,inactive

7 entries from above, arranged by “mitotic cells, replicate 1”, lowest first:
target gene,reagent no.,"mitotic cells, replicate 1",activity call
Coq9,1,4,inactive
ato,1,4,inactive
CG4892,1,4,inactive
Ype,1,5,inactive
cass,1,6,inactive
Dnaaf6,1,6,inactive
cass,2,11,inactive

The results go on.
target gene,reagent no.,"mitotic cells, replicate 1",activity call
OXA1L,1,8,inactive
OXA1L,2,9,inactive
thw,1,7,inactive
CG15514,1,4,inactive
CG15514,2,7,inactive
Snap29,1,8,inactive
Snap29,2,5,inactive
pwn,1,4,inactive
pwn,2,4,inactive
Fdx1,1,2,inactive
Fdx1,2,5,inactive
CG30479,1,10,inactive
CG30479,2,4,inactive
RpS29 + snoRNA:Psi18S-1275,1,9,inactive
Ir67a,1,6,inactive
Frq2,1,11,inactive
Frq2,2,8,inactive
Upf2,1,9,inactive
Upf2,2,5,inactive
